Publication PMC2572998, “Structures of the Signal Recognition Particle Receptor from the Archaeon Pyrococcus furiosus: Implications for the Targeting Step at the Membrane” (PLoS ONE, 2008)
Results are given in words; binding and its absence hold for the method and conditions named. Each block holds one binder with its values, some of them ahead of it.

Key:
[1] = biological target: Pyrococcus furiosus FtsY (signal recognition particle receptor) (Pyrococcus furiosus) (UniProt Q8U051); assay: AUC; sedimentation equilibrium, 3 to 9 concentrations at 8500, 12 000, 17 000 and 20 000 rpm, 20°C, 20 mM Hepes pH 7.5, 250 mM KCl, 0.5 mM EDTA, 5 mM MgCl2; single component model; both purified
[2] = biological target: Pyrococcus furiosus FtsY (signal recognition particle receptor) (Pyrococcus furiosus) (UniProt Q8U051); assay: SAXS; Guinier analysis of the concentration dependence, 2.5 to 25 mg/ml, 15°C, 20 mM Hepes pH 7.5, 250 mM KCl, 0.5 mM EDTA, 5 mM MgCl2, 10 mM DTT; both purified
[3] = biological target: Pyrococcus furiosus FtsY (signal recognition particle receptor) (Pyrococcus furiosus) (UniProt Q8U051); assay: AUC; sedimentation velocity, 50 000 rpm, 20°C, 20 mM Hepes pH 7.5, 250 mM KCl, 0.5 mM EDTA, 5 mM MgCl2; 0.35-3.5 mg/ml (10 to 100 µM); g(s*) time-derivative analysis; both purified
[4] = biological target: Thermus aquaticus FtsY (signal recognition particle receptor) (Thermus aquaticus) (UniProt P83749); assay: AUC; sedimentation equilibrium, 3 to 9 concentrations at 8500, 12 000, 17 000 and 20 000 rpm, 20°C, 20 mM Hepes pH 7.5, 250 mM KCl, 0.5 mM EDTA, 5 mM MgCl2; single component model; both purified
[5] = biological target: Thermus aquaticus FtsY (signal recognition particle receptor) (Thermus aquaticus) (UniProt P83749); assay: SAXS; Guinier analysis of the concentration dependence, 2.5 to 25 mg/ml, 15°C, 20 mM Hepes pH 7.5, 250 mM KCl, 0.5 mM EDTA, 5 mM MgCl2, 10 mM DTT; both purified
[6] = biological target: Thermus aquaticus FtsY (signal recognition particle receptor) (Thermus aquaticus) (UniProt P83749); assay: AUC; sedimentation velocity, 50 000 rpm, 20°C, 20 mM Hepes pH 7.5, 250 mM KCl, 0.5 mM EDTA, 5 mM MgCl2; 0.35-3.5 mg/ml (10 to 100 µM); g(s*) time-derivative analysis; both purified

binding [1]: no binding (tested: 10 to 100 µM) | binding [2]: no binding (tested: 2.5 to 25 mg. ml^−1) | binding [3]: no binding (tested: 10 to 100 µM)
B1: Pyrococcus furiosus FtsY (signal recognition particle receptor) (protein, UniProt Q8U051 1-322)
chain: MFGKLREKLKSFVKRVEEEVEKEEEEVEKKGLLDRILTVEIKEKDVDKALDELEIDLLEADVALEVVDALREKIKQKLVGKKVRIGTDKGKIIEEAVKEAVSEILETSRRIDLIEEIRKAEKPYVIMFVGFNGSGKTTTIAKLANWLKNHGFSVVIAASDTFRAGAIEQLEEHAKRIGVKVIKHSYGADPAAVAYDAIQHAKARGIDVVLIDTAGRSETNRNLMDEMKKIARVTKPNLVIFVGDALAGNAIVEQARQFNEAVKIDGIILTKLDADARGGAALSISYVIDAPILFVGVGQGYDDLRPFEKEWFLERIFGEENA

binding [4]: no binding (tested: 10 to 100 µM) | binding [5]: no binding (tested: 2.5 to 25 mg. ml^−1) | binding [6]: no binding (tested: 10 to 100 µM)
B2: Thermus aquaticus FtsY (signal recognition particle receptor) (protein, UniProt P83749 1-304)
chain: MGFFDRLKAGLAKTRERLLKAIPWGGNLEEVLEELEMALLAADVGLSATEEILQEVRASGRKDLKEAVKEKLVGMLEPDERRATLRKLGFNPQKPKPVEPKGRVVLVVGVNGVGKTTTIAKLGRYYQNLGKKVMFCAGDTFRAAGGTQLSEWGKRLSIPVIQGPEGTDPAALAYDAVQAMKARGYDLLFVDTAGRLHTKHNLMEELKKVKRAIAKADPEEPKEVWLVLDAVTGQNGLEQAKKFHEAVGLTGVIVTKLDGTAKGGVLIPIVRTLKVPIKFVGVGEGPDDLQPFDPEAFVEALLED
